Experimental data: PubChem BioAssay AID248 (DTP/NCI, 2004)
The list shows only some results of the screen, not a fair sample: it gathers tests that were run many times, whatever their T/C, doses with no T/C, and many T/C values between a quarter and a half above the control. Further doses and runs are listed elsewhere. T/C gives the treated animals as a percentage of the vehicle group. Some doses have a count of surviving animals in place of a T/C: the source holds a T/C of zero for them, seemingly a mark for toxic or unscored doses. Survivors were counted at the toxicity check, usually on the fifth day, unless a day is given; later deaths do not show. Schedules are NCI's codes, taken here to give the interval after Q, in days (D) or hours (H), and the number of doses after X. Some entries were tested several times; the results are listed from low to high. Brackets with × stand for listed records that agree. Some doses without a T/C left all or most animals alive at the check, yet need not have been tolerated: survival well below the control is almost never listed, so the zero probably covers shortened survival too. Where survival is the endpoint, the PubChem record calls one and a half times the control and up active, and a quarter to a half above the control has no call in these data; cut-offs in other NCI protocols can differ. Some T/C values are followed by the survivors on the day toxicity was checked, most often the fifth; where none is given, no animal had died by that day.

Tested on: L1210 leukemia ip in BDF1 mice, survival T/C
Experiment: NCI In Vivo Anticancer Drug Screen. Data for tumor model L1210 Leukemia (intraperitoneal) in B6D2F1 (BDF1) mice
Conditions: T/C endpoint: median survival time, vehicle: saline, higher T/C = longer survival
[1] = dose: 500.0 mg/kg/injection, schedule: Q07DX003 (ip)
[2] = dose: 600.0 mg/kg/injection, schedule: Q01DX001 (ip)
[3] = dose: 800.0 mg/kg/injection, schedule: Q01DX001 (ip)

O=P1(N(CCCl)CCCl)NCCCO1 (stereo not given)
T/C (dose: 300.0 mg/kg/injection, schedule: Q01DX001 (ip), evaluated on day 46): 257 % of control
T/C (dose: 300.0 mg/kg/injection, schedule: Q01DX001 (ip), evaluated on day 59): 655 % of control
T/C (dose: 300.0 mg/kg/injection, schedule: Q01DX001 (ip), evaluated on day 60): 237 and 666 % of control
T/C (dose: 300.0 mg/kg/injection, schedule: Q01DX001 (ip), evaluated on day 62): 272 % of control [7 of 8 alive]
T/C (dose: 300.0 mg/kg/injection, schedule: Q01DX001 (ip), evaluated on day 63): 741 % of control
T/C (dose: 300.0 mg/kg/injection, schedule: Q01DX001 (ip), evaluated on day 69): 500 % of control
T/C (dose: 300.0 mg/kg/injection, schedule: Q01DX001 (ip), evaluated on day 90): 250 % of control
T/C (dose: 300.0 mg/kg/injection, schedule: Q07DX003 (ip), evaluated on day 7): 117, 194, 206, 260, 282, 371 % of control
T/C (dose: 300.0 mg/kg/injection, schedule: Q07DX003 (ip), evaluated on day 32): 194 and 206 % of control
T/C (dose: 300.0 mg/kg/injection, schedule: Q07DX003 (ip), evaluated on day 34): 117 % of control
T/C (dose: 300.0 mg/kg/injection, schedule: Q07DX003 (ip), evaluated on day 46): 252 % of control
T/C (dose: 300.0 mg/kg/injection, schedule: Q07DX003 (ip), evaluated on day 63): 282 and 371 % of control
T/C (dose: 300.0 mg/kg/injection, schedule: Q07DX004 (ip), evaluated on day 7): 180 and 217 % of control
T/C (dose: 300.0 mg/kg/injection, schedule: Q07DX004 (ip), evaluated on day 60): 177 and 216 % of control
T/C (dose: 400.0 mg/kg/injection, schedule: Q01DX001 (ip), evaluated on day 7): 48, 80, 83, 91 (2×), 114, 127, 154 (2×), 200, 224, 233, 255, 257 % of control
T/C (dose: 400.0 mg/kg/injection, schedule: Q01DX001 (ip), evaluated on day 26): 114 % of control [9 of 10 alive]
T/C (dose: 400.0 mg/kg/injection, schedule: Q01DX001 (ip), evaluated on day 30): 337 % of control
T/C (dose: 400.0 mg/kg/injection, schedule: Q01DX001 (ip), evaluated on day 35): 91 % of control [6 of 8 alive]
T/C (dose: 400.0 mg/kg/injection, schedule: Q01DX001 (ip), evaluated on day 43): 195 % of control
T/C (dose: 400.0 mg/kg/injection, schedule: Q01DX001 (ip), evaluated on day 44): 180 % of control [7 of 8 alive]
T/C (dose: 400.0 mg/kg/injection, schedule: Q01DX001 (ip), evaluated on day 45): 250 % of control
T/C (dose: 400.0 mg/kg/injection, schedule: Q01DX001 (ip), evaluated on day 60): 88 % of control [7 of 8 alive]
T/C (dose: 400.0 mg/kg/injection, schedule: Q01DX001 (ip), evaluated on day 63): 127 % of control
survivor count (dose: 400.0 mg/kg/injection, schedule: Q01DX001 (ip)): 3 of 8, 5 of 8, 6 of 8 (2×), 6 of 6
T/C (dose: 400.0 mg/kg/injection, schedule: Q08DX002 (ip), evaluated on day 7): 160, 247, 265 % of control
T/C (dose: 400.0 mg/kg/injection, schedule: Q08DX002 (ip), evaluated on day 43): 245 % of control
T/C (dose: 400.0 mg/kg/injection, schedule: Q08DX002 (ip), evaluated on day 44): 245 % of control
T/C (dose: 400.0 mg/kg/injection, schedule: Q08DX002 (ip), evaluated on day 46): 160 % of control [7 of 8 alive]
T/C (dose: 500.0 mg/kg/injection, schedule: Q01DX001 (ip), evaluated on day 5): 28, 77, 240 % of control
T/C (dose: 500.0 mg/kg/injection, schedule: Q01DX001 (ip), evaluated on day 7): 63, 83, 90, 125 % of control
T/C (dose: 500.0 mg/kg/injection, schedule: Q01DX001 (ip), evaluated on day 60): 237 and 322 % of control
survivor count (dose: 500.0 mg/kg/injection, schedule: Q01DX001 (ip)): 0 of 3, 0 of 8 (3×), 2 of 8, 3 of 8, 4 of 8, 5 of 8, 6 of 8
T/C [1]: 77 and 106 % of control
survivor count [1]: 4 of 8 and 5 of 8
T/C [2]: 61, 74, 81 % of control
survivor count [2]: 2 of 8, 3 of 8, 4 of 8
T/C (dose: 600.0 mg/kg/injection, schedule: Q07DX003 (ip), evaluated on day 7): 63 and 142 % of control
T/C (dose: 600.0 mg/kg/injection, schedule: Q07DX003 (ip), evaluated on day 63): 142 % of control
survivor count (dose: 600.0 mg/kg/injection, schedule: Q07DX003 (ip)): 1 of 8
T/C (dose: 600.0 mg/kg/injection, schedule: Q08DX002 (ip), evaluated on day 7): 63 and 115 % of control
T/C (dose: 600.0 mg/kg/injection, schedule: Q08DX002 (ip), evaluated on day 44): 110 % of control
survivor count (dose: 600.0 mg/kg/injection, schedule: Q08DX002 (ip)): 3 of 8
survivor count (dose: 600.0 mg/kg/injection, schedule: Q08DX003 (ip)): 1 of 8
T/C [3]: 39, 45 (2×), 63 (2×), 67 % of control
survivor count [3]: 0 of 8 (3×) and 4 of 10
